Here are results for one molecule from paper PMC11134554.

This assay concerns the target T1, Senp7 (sentrin/SUMO-specific protease 7) (mouse (endogenous in primary preadipocytes and iWAT-1 cells)) (UniProt Q8BUH8).
T1 sequence: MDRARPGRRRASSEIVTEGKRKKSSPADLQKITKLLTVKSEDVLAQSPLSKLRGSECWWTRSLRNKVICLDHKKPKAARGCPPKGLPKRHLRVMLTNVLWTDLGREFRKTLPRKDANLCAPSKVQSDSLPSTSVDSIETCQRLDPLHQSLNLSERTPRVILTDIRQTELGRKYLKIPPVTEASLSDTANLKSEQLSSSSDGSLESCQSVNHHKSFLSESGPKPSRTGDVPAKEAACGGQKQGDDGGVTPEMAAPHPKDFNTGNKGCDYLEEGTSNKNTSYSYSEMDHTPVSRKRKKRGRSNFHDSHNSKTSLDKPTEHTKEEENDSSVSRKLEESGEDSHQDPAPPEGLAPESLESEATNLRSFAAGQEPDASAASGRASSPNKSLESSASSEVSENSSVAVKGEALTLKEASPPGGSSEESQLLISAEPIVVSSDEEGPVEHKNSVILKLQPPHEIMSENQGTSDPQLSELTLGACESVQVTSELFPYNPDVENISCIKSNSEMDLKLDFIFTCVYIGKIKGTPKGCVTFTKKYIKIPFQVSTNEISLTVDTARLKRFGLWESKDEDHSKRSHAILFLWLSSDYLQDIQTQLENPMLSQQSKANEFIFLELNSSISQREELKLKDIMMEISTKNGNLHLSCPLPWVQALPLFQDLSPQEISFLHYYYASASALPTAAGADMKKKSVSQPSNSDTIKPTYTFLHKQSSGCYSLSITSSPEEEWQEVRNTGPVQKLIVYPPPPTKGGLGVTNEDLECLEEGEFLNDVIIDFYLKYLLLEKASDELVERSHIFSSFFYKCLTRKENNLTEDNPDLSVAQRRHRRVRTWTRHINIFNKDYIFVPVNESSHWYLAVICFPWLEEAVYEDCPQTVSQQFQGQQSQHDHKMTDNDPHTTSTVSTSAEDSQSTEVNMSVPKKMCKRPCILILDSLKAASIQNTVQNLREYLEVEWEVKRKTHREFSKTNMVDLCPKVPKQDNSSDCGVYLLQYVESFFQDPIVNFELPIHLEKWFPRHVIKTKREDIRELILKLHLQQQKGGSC
The assay is described as follows: co-IP; endogenous proteins in iWAT-1 cell lysate; IP lysis buffer (20 mM Tris-HCl pH 8, 137 mM NaCl, 1% Nonidet P-40, 2 mM EDTA) with 1 mM N-ethylmaleimide; antibody overnight at 4 °C, protein G Sepharose beads; Western blot. Background: A western blot detects proteins with antibodies after separation by electrophoresis.

No constants are given. Whether binding was seen depends on the method and setting. In cells and extracts the contact can be indirect.

B1: Plin2 (perilipin 2) (protein, UniProt P43883 1-425)
chain: MAAAVVDPQQSVVMRVANLPLVSSTYDLVSSAYVSTKDQYPYLRSVCEMAEKGVKTVTSAAMTSALPIIQKLEPQIAVANTYACKGLDRMEERLPILNQPTSEIVASARGAVTGAKDVVTTTMAGAKDSVASTVSGVVDKTKGAVTGSVERTKSVVNGSINTVLGMVQFMNSGVDNAITKSELLVDQYFPLTQEELEMEAKKVEGFDMVQKPSNYERLESLSTKLCSRAYHQALSRVKEAKQKSQETISQLHSTVHLIEFARKNMHSANQKIQGAQDKLYVSWVEWKRSIGYDDTDESHCVEHIESRTLAIARNLTQQLQTTCQTVLVNAQGLPQNIQDQAKHLGVMAGDIYSVFRNAASFKEVSDGVLTSSKGQLQKMKESLDEVMDYFVNNTPLNWLVGPFYPQSTEVNKASLKVQQSEVKAQ
Turning to B1, the binding entry is on record as “no binding”.
